Among the data in paper PMC8081163 are binding values, retold here.

By UniProt entry, the sequences of proteins in these tests, tags left out. Where a name states a change or a piece, a line headed by the entry shows the natural chain unless it says otherwise.
UniProt Q61656: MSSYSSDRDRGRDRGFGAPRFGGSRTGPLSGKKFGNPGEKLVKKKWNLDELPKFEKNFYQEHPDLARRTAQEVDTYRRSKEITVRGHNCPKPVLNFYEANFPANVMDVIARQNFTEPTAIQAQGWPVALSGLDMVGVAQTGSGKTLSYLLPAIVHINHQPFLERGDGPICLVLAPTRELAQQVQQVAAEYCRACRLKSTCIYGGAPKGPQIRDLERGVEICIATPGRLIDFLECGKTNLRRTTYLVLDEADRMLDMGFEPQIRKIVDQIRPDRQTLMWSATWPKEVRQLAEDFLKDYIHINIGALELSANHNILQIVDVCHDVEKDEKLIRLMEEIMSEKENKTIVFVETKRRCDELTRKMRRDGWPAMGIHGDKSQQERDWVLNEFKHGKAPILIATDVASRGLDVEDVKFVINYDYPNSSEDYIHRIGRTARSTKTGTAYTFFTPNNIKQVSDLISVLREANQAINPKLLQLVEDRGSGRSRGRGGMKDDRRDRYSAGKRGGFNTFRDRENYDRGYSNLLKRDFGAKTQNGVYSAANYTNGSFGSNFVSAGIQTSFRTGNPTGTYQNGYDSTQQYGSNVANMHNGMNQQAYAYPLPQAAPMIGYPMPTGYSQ
UniProt Q8C3P7: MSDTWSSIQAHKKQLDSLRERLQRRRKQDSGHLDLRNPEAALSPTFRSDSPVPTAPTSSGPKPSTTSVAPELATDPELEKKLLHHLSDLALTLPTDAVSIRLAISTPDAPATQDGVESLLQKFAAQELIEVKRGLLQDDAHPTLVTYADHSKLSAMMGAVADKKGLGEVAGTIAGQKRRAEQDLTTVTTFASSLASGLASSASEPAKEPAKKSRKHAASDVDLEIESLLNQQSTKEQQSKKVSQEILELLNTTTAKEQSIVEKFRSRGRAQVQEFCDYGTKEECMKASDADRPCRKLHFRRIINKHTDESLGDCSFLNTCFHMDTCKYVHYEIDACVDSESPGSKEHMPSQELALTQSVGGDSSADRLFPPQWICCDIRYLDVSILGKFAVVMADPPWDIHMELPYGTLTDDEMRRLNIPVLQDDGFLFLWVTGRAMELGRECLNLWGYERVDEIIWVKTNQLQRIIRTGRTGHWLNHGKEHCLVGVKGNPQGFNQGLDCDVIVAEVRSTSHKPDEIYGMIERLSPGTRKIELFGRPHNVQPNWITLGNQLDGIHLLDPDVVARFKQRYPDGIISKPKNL

The target in the assay is DDX5 (endogenous, mouse cells) (mouse (endogenous in MEFs NIH/3T3 and macrophages J774A.1)) (UniProt Q61656). As to the kind of experiment: affinity purification with mass spectrometry.

No constants are given. Whether binding was seen depends on the method and setting. Binding seen in cells or lysates may run through a third protein. A yes stands for co-enrichment or nearness to the bait. Other partners may have been found.

In the case of “METTL3 (endogenous, mouse cells) (from UniProt Q8C3P7 1-580)”, the binding entry is “binds”.
